Laboratory results taken from paper PMC2584773.
These are yes or no findings as the source states them, for the method shown. For part of these data: Binding calls can cover weak binding; strength is not graded here.

By UniProt entry, the sequences of proteins in these tests, tags left out. Where a name states a change or a piece, a line headed by the entry shows the natural chain unless it says otherwise. Chains listed by the source or under a name are the forms on record and can include a tag or linker. Residues count along the entry.
UniProt Q92786: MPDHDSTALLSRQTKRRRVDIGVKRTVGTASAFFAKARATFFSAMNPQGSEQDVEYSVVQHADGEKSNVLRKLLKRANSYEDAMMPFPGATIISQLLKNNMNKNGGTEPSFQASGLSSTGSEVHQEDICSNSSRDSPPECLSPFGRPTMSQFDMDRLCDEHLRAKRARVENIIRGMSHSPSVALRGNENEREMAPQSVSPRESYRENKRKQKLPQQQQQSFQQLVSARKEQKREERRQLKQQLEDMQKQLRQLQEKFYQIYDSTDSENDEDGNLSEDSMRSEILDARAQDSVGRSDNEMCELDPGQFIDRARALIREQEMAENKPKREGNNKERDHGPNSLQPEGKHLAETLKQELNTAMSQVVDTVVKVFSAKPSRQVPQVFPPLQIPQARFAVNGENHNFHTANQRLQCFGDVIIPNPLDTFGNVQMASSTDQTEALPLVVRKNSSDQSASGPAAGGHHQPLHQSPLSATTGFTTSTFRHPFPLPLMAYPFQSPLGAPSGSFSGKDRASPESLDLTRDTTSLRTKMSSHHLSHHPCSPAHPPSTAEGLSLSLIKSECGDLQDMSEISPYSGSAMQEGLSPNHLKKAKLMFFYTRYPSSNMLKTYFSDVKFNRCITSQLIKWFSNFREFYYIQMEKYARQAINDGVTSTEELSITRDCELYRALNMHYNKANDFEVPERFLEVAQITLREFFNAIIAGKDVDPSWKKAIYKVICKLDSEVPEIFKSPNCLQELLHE
PCNA C+ fragment (amino acids 115-261), carboxyl-terminal domain 2 plus the IDCL, fused to the Gal4 activation domain (P17918, residues 115-261): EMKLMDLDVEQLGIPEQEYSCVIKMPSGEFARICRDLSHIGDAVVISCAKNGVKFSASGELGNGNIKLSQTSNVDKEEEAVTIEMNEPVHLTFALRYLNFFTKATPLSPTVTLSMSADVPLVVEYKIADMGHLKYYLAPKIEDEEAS
UniProt P17918, residues 167-261: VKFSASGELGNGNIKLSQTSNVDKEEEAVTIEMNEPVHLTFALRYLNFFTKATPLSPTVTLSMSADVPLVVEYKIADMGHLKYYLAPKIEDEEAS

Columns and labels:
Assay in all cases: two-hybrid; mating of AH109 (Gal4 DNA-binding domain-Prox1 bait) with Y187 (Gal4 activation domain-PCNA prey); colonies from DO plates restreaked on high stringency quadruple drop out (QDO) plates with X-alpha-Gal; growth and blue colour
[1] = molecular target: Prox1 homeo-Prospero domain PIP box mutant ELF (human) (UniProt Q92786)
[2] = molecular target: Prox1 homeo-Prospero domain PIP box mutant LF (human) (UniProt Q92786)
[3] = molecular target: Prox1 homeo-Prospero domain PIP box mutant QLFF (human) (UniProt Q92786)

Substance | binding [1] | binding [2] | binding [3]
carboxyl-terminus of PCNA (amino acids 167-261), original clone isolated from the library, fused to the Gal4 activation domain (from UniProt P17918 167-261) (domain or fragment) | binds | binds | no binding
PCNA C+ fragment (amino acids 115-261), carboxyl-terminal domain 2 plus the IDCL, fused to the Gal4 activation domain (from UniProt P17918 115-261) (domain or fragment) | binds | binds | no binding
